Reference: PMC9133052
Read-outs that look alike come from different tables or passages of the source. Results are given in words; binding and its absence hold for the method and conditions named. For some assays here: Binding seen in cells or lysates may run through a third protein. Some results given as binding are weak or reduced against the parent protein; the word gives no strength. For some assays here: Where a sequence is shown, tags or fusion partners need not be part of it.

Amino acid sequences for entries named in this document (tags omitted).
UniProt Q4V8G6: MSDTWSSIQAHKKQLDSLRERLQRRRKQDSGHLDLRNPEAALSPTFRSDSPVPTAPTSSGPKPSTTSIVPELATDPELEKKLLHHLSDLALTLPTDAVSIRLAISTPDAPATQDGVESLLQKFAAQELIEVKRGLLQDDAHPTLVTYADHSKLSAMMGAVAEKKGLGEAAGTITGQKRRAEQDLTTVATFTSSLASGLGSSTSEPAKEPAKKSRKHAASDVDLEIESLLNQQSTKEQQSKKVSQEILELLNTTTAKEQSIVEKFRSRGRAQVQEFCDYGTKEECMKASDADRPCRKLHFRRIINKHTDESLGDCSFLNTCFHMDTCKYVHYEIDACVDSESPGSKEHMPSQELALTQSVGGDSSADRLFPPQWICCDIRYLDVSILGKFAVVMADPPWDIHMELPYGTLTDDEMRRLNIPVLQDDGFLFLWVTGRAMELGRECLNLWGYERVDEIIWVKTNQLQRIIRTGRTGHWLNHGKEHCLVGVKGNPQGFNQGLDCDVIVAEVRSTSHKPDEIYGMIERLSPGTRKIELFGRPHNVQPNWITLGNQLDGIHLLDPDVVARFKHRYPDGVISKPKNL
UniProt P62630: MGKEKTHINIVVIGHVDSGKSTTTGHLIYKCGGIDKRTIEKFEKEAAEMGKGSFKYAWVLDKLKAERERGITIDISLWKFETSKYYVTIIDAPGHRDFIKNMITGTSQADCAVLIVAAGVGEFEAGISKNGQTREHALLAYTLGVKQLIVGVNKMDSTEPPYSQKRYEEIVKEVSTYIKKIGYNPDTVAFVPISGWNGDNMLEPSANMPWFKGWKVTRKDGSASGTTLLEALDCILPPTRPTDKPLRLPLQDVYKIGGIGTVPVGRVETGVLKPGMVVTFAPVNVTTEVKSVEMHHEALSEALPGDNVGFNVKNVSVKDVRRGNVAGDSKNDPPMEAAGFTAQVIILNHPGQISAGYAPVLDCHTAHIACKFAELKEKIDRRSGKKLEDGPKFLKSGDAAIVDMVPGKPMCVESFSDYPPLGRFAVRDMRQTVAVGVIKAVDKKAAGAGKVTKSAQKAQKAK

T1: His-tagged Ythdf2 (UniProt E9PU11)
T1 sequence: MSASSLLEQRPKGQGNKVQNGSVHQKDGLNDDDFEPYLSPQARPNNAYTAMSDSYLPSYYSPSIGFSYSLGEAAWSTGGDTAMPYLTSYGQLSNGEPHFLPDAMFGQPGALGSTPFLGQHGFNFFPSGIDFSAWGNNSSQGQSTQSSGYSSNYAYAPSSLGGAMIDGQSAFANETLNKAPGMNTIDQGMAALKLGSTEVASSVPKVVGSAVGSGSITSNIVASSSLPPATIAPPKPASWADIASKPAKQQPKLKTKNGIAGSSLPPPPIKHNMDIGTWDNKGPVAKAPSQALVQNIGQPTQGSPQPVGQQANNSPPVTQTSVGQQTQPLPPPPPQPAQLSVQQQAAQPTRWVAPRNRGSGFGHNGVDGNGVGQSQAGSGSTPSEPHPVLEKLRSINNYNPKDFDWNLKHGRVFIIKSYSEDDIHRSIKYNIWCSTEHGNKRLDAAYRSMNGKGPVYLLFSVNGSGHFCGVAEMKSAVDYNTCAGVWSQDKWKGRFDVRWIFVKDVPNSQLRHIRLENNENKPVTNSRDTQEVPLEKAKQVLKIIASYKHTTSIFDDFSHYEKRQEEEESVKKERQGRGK

B1: Ythdf1 (protein, UniProt Q4V8J6 1-559)
chain: MSATSVDPQRTKGQENKVQNGSLHQKDAVHDNDFEPYLSGQSNPSNSYPSMSDPYLSSYYPPSIGFPYSLSEAPWSTAGDPPIPYLTTYGQLSNGDHHFMHDAVFGQPGGLGNNIYQHRFNFFPENPAFSAWGTSGSQGQQTQSSAYGSSYTYPPSSLGGTVVDGQTGFHSDTLNKAPGMNSLEQGMVGLKIGDVTTSAVKTVGSVVNSVALTGVLSGNGGTNVNMPVSKPTSWAAIASKPAKPQPKMKTKSGPIVGGTLPPPPIKHNMDIGTWDNKGPAPKASAPQQTPSPQAAPQPQQVAQPLPVQPPPLVQPQYQSPQQPLQPRWVAPRNRNAAFGQSGGANSDSNSVGSAQPTSAPSVESHPVLEKLKAAHSYNPKEFDWNLKSGRVFIIKSYSEDDIHRSIKYSIWCSTEHGNKRLDGAFRSMSSKGPVYLLFSVNGSGHFCGVAEMKSPVDYGTSAGVWSQDKWKGKFDVKWIFVKDVPNNQLRHIRLENNDNKPVTNSRDTQEVPLEKAKQVLKIIASYKHTTSIFDDFSHYEKRQEEEEVVRKERQNRNKQ
B2: Ythdf2 (protein, UniProt E9PU11 1-579)
chain: MSASSLLEQRPKGQGNKVQNGSVHQKDGLNDDDFEPYLSPQARPNNAYTAMSDSYLPSYYSPSIGFSYSLGEAAWSTGGDTAMPYLTSYGQLSNGEPHFLPDAMFGQPGALGSTPFLGQHGFNFFPSGIDFSAWGNNSSQGQSTQSSGYSSNYAYAPSSLGGAMIDGQSAFANETLNKAPGMNTIDQGMAALKLGSTEVASSVPKVVGSAVGSGSITSNIVASSSLPPATIAPPKPASWADIASKPAKQQPKLKTKNGIAGSSLPPPPIKHNMDIGTWDNKGPVAKAPSQALVQNIGQPTQGSPQPVGQQANNSPPVTQTSVGQQTQPLPPPPPQPAQLSVQQQAAQPTRWVAPRNRGSGFGHNGVDGNGVGQSQAGSGSTPSEPHPVLEKLRSINNYNPKDFDWNLKHGRVFIIKSYSEDDIHRSIKYNIWCSTEHGNKRLDAAYRSMNGKGPVYLLFSVNGSGHFCGVAEMKSAVDYNTCAGVWSQDKWKGRFDVRWIFVKDVPNSQLRHIRLENNENKPVTNSRDTQEVPLEKAKQVLKIIASYKHTTSIFDDFSHYEKRQEEEESVKKERQGRGK
B3: Ythdf3 (protein, UniProt D3ZIY3 1-585)
chain: MSATSVDQRPKGQGNKVSVQNGSIHQKDAVNDDDFEPYLSSQTNQNNSYPPMSDPYMPSYYAPSIGFPYSLGEAAWSTAGDQPMPYLTTYGQMSNGEHHYIPDGVFSQPGALGNTPPFLGQHGFNFFPGNADFSTWGTSGSQGQSTQNSAYSSSYGYPPSSLGRAITDGQAGFGNDTLSKVPGISSIEQGMTGLKIGGDLTAAVTKTVGTALSSSGMTSIATNNVPPVSSAAPKPTSWAAIARKPAKPQPKLKPKGSVGIGGSAVPPPPIKHNMNIGTWDEKGSVVKAPPTQPVLPPQTIIQQPQPLIQPPPLVQSQLPQQQPQPPQPQQQQGPQPQAQPHQVQSQQPQLQNRWVAPRNRGTGFNQNNGTGSENFGLGVVPVSASPSSVEVHPVLEKLKAINNYNPKDFDWNLKNGRVFIIKSYSEDDIHRSIKYSIWCSTEHGNKRLDAAYRSLNGKGPLYLLFSVNGSGHFCGVAEMKSVVDYNAYAGVWSQDKWKGKFEVKWIFVKDVPNNQLRHIRLENNDNKPVTNSRDTQEVPLEKAKQVLKIIATFKHTTSIFDDFAHYEKRQEEEEAMRRERNRNKQ

Columns and labels:
His-tagged Ythdf2 = biological target: T1, His-tagged Ythdf2; assay: SPR; Biacore 8K, 25 °C, His-tagged protein captured on NTA chip (100-150 RU), analyte proteins without His tag 3-100 nM injected 100 s, dissociation 150 s, HBS-P+ running buffer; both purified
[1] = biological target: Mettl3 (rat (endogenous in BMSCs)) (UniProt Q4V8G6); assay: co-IP; endogenous proteins immunoprecipitated from rat BMSC lysates (with or without chondrogenic induction) with Nsun4 or Mettl3 antibody and corresponding IgG, Pierce Direct Magnetic IP/Co-IP kit, western blot
[2] = biological target: Mettl3 (rat (endogenous in BMSCs)) (UniProt Q4V8G6); assay: as above; remark: listed apart in the source

| Molecule | binding [2] | further results |
| --- | --- | --- |
| eEF1α-1 (His tag cleaved) (from UniProt P62630 1-462) | – | binding (His-tagged Ythdf2): binds |
| eEF1α-1 (from UniProt P62630 1-462) | – | binding [1]: binds |
| B1 | binds | – |
| B2 | binds | – |
| B3 | binds | – |
